We go through one substance from article PMC3913039.

Amino acid sequences for entries named in this document (tags omitted). Residues count along the entry.
UniProt P38377: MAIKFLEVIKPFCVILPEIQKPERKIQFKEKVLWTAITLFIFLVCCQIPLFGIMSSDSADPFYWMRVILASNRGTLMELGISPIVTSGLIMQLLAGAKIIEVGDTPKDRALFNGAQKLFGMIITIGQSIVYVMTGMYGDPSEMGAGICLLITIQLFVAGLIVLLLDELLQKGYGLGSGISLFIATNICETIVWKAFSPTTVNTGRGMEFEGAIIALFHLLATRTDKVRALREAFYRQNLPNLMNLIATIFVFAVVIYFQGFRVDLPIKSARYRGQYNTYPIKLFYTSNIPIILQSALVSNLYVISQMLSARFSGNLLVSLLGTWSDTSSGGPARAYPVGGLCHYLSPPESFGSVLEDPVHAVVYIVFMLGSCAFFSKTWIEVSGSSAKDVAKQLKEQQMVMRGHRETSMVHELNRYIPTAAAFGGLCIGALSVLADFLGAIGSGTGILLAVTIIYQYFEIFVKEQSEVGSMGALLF
UniProt P60467: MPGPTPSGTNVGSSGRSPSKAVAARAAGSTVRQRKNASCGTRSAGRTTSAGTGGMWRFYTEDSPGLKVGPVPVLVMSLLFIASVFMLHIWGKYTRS
UniProt P01375, residues 1-123: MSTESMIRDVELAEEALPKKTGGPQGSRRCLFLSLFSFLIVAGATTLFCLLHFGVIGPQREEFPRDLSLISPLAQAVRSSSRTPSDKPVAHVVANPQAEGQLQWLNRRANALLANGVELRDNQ

The target of test [1] is Sec61α of canine rough microsomes (dog (endogenous in canine rough microsomes)) (UniProt P38377). In words: cross-linking; with CT8 (1 μM, or titrated): microsome-targeted RNCs (canine rough microsomes) isolated through a high-salt sucrose cushion, 50 μM bis-maleimidohexane (BMH, ~13 Å) 30 min at 0°C; SDS-PAGE and autoradiography; partners identified by denaturing immunoprecipitation.

Test [2] concerns the target Sec61β of canine rough microsomes (dog (endogenous in canine rough microsomes)) (UniProt P60467). The description is as above.

These are yes or no findings as the source states them, for the method shown. Binding seen in cells or lysates may run through a third protein. Some entries that bind do so weakly or less than the wild type.

With “wild-type TNFα 126-mer ribosome-nascent chain complex (from UniProt P01375 1-123) (domain or fragment)”, the binding entry in test [1] and in test [2] was “binds” each time.
